Assay results taken from PubChem BioAssay AID2685 (National Center for Advancing Translational Sciences (NCATS), 2010).
The list shows a part of the results. Shown are side measurements of this screen, not its main read-out; they come without a call. Compounds called inactive in the main read-out are mostly missing here. Words in brackets tell the shape of the fitted curve; partial curves, single points and poor fits give uncertain potencies.

Assay: qHTS Assay for Lipid Storage Modulators in Drosophila S3 Cells;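 on cell number change: cells counted by Cell Tracker Red CMTPX staining in the red channel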
Settings: BODIPY lipid droplet fluorescence, 18-24 h; for cell number change: measured here: cell count max response, cells fed with added oleic acid
Procedure, shortened: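 Drosophila S3 cells loaded with oleic acid (400 uM, as added) and compounds at several concentrations; lipid droplets imaged by 488-nm laser-scanning cytometry, 500–530 nm intensity and object ratio to cell channel. Percent activity normalized to 20 uM Triacsin C.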

[1] = measured here: lipid fluorescence (Fed channel) AC50, cells fed with added oleic acid
[2] = measured here: cell number channel AC50, cells fed with added oleic acid

SMILES | AC50 [1] | cell number change | AC50 [2]
CCCCNC(=O)CC1SC(=NCC)N(CC)C1=O (centres undefined) | 4.11 µM [rising, single point] | – | –
CC(=O)Nc1ccc(SC(C)C(=O)NC(N)=O)cc1 (centres undefined) | 20.6 µM [falling, partial curve] | – | –
COCc1[nH]nc2c1C(c1c(F)cccc1Cl)C(C#N)=C(N)O2 (centres undefined) | – | -31.6% | 1.46 µM [falling, full curve, poor fit]
COC(=O)c1ccc(OCC(O)CN2CCc3cc(OC)c(OC)cc3C2c2ccccc2)cc1 (centres undefined) | – | 16.1% | –
c1cc2c3c(cccc3c1)NC1(CCCCCC1)N2 | 2.06 µM [rising, single point] | 8.26% | –
Nc1c(C(=O)Nc2cccc(C(=O)O)c2)sc2nc3c(cc12)CCCC3 | 6.51 µM [rising, single point] | -4.05% | –
COc1ccccc1C(O)(C(=O)N(NC(C)=O)c1ccccc1)c1ccccc1OC | 2.91 µM [rising, single point] | -15.3% | –
Fc1ccc(/C=N/NC(=S)Nc2cccnc2)cc1 | – | 87.9% | –
CS(=O)(=O)Oc1ccc(/C=N/NC(=O)c2ccncc2)cc1 | 0.651 µM [falling, partial curve, poor fit] | 16.7% | 0.0651 µM [falling, full curve]
Cc1ccccc1C(=O)O | – | 13.3% | 0.146 µM [falling, single point]
COc1nnc(-c2ccc(N3CCOCC3)c(NC(=O)c3ccccc3)c2)c2ccccc12 | – | -0.133% | –
CCN(CC(=O)Nc1c(F)cccc1F)C(=O)CNC(=O)c1ccc(Br)o1 | – | -5.66% | –
COc1ccc(NC(=O)Cc2nnc(SCC(=O)Nc3ccccc3)n2C)cc1 | 20.6 µM [rising, single point] | 22.7% | –
O=C1NCCN(Cc2ccc(Cl)c(F)c2)C1CC(=O)N1CCCO1 (centres undefined) | 0.00651 µM [rising, full curve, poor fit] | 20.5% | –
O=C(/C=C/c1ccco1)NC1CCCC1 | 0.13 µM [falling, full curve, poor fit] | 24.2% | –
CCc1ccccc1-n1cnc2cc(C(=O)O)ccc21 | – | -32.3% | –
COc1cc2c(cc1OC)C(C)N(S(=O)(=O)c1cnc(Cl)c(Cl)c1)CC2 (centres undefined) | 6.51 µM [falling, single point] | – | –
Cc1ccc(OC(F)F)c(NC(=O)Nc2cccc(C(F)(F)F)c2)c1 | – | -81% | 29.1 µM [falling, single point]
COc1ccc(CN2C(=O)C(O)(CC(=O)c3c(C)n[nH]c3C)c3ccccc32)cc1OC (centres undefined) | 0.731 µM [rising, full curve] | 10% | –
O=C(NC1CCN(Cc2ccccc2)CC1)c1ccc(CS(=O)c2ccc(F)cc2)o1 (centres undefined) | 6.51 µM [falling, single point] | – | –
O=C(NCc1nc2ccccc2[nH]1)C1=C[C@@H](c2csc3ccccc23)C[C@@H](OCCCCO)O1 | 1.3 µM [rising, full curve, poor fit] | -0.318% | –

SMILES | AC50 [1] | cell number change | AC50 [2]
Cc1ccc(Cl)c(OCCN2CCCC(C)C2)c1 (centres undefined) | 6.51 µM [falling, single point] | 12.7% | –
Cc1ccc(-n2nc3ccc(NC(=O)c4ccco4)cc3n2)cc1 | – | – | 1.46 µM [rising, partial curve]
N#CC1(C#N)CC(C=O)=C(N)C1(C#N)CC(=O)C12CC3CC(CC(C3)C1)C2 (centres undefined) | 29.1 µM [falling, single point] | -22.1% | –
COc1ccc2c(c1)c(=O)c(C(=O)c1ccc(C)cc1)cn2CC(=O)Nc1ccc(F)cc1 | – | 10.4% | –
Cc1cccc(NC(=O)CN(CC2CCCO2)C(=O)c2oc3ccccc3c2C)c1C (centres undefined) | – | -29.7% | –
Cc1cc(C)cc(C(=O)NCCCN2CCOCC2)c1 | 0.58 µM [falling, single point] | 8.76% | –
Cn1ncc2c(Nc3ccc(Cl)cc3)ncnc21 | 1.03 µM [falling, full curve] | -25.7% | –
NC(=O)CC(NC(=O)Cc1ccc(Br)cc1)c1ccc(NCc2cc(F)ccc2F)c([N+](=O)[O-])c1 (centres undefined) | 10.3 µM [falling, partial curve] | 14.9% | –
Cc1cc(Cl)ccc1OCC(=O)NCCCN1CCOCC1 | 29.1 µM [rising, single point] | -11.2% | –
COc1cc2c(cc1OC)CN(C(=O)CNC(=O)c1ccc(OC(F)F)cc1)CC2 | 13 µM [rising, partial curve, poor fit] | 25.2% | 0.461 µM [rising, full curve, poor fit]
O=C(CCCn1c(=S)[nH]c2ccc(Br)cc2c1=O)NCC1CCCO1 (centres undefined) | 29.1 µM [falling, single point] | -15.2% | –
COc1ccc(N(CC(O)CN2CCOCC2)S(=O)(=O)c2ccccc2)cc1 (centres undefined) | – | 6.41% | –
C=CCOc1cccc(C2C(C(=O)c3ccc(C)o3)=C(O)C(=O)N2c2nnc(C)s2)c1 (centres undefined) | – | 47.5% | 1.64 µM [rising, partial curve]
COc1ccc(CNC(=O)C(OC(=O)c2ccco2)c2ccc(F)cc2)cc1 (centres undefined) | 0.00461 µM [rising, full curve, poor fit] | 21.7% | –
CCOC(=O)C1(CCOC)CCN(Cc2ccc3nonc3c2)CC1 | 3.66 µM [rising, single point] | 9.47% | 4.11 µM [rising, single point]
CCN(CC)c1ccc2cc(S(=O)(=O)c3ccc(C)cc3)c(=O)oc2c1 | 23.1 µM [rising, partial curve] | 52.9% | 29.1 µM [rising, single point]
O=C(NC1CCCC1)c1ccc(CS(=O)Cc2ccc(Cl)cc2)o1 (centres undefined) | 6.51 µM [falling, single point] | – | –
N#C/C(=C\c1ccc(O)c(O)c1)C(=O)NCCc1ccccc1 | 0.116 µM [falling, full curve, poor fit] | -21.9% | 0.116 µM [falling, full curve, poor fit]
CC(=O)c1cccc(NCC(=O)c2ccc(C)c([N+](=O)[O-])c2)c1 | 6.51 µM [rising, single point] | 17.1% | –
CC1=CC=CC2=NC(=O)CC(C)(C(=O)N(CC(=O)NC3CCCC3)c3ccc(F)cc3)N12 (centres undefined) | – | -19.2% | –
CCOC(=O)c1ccc(NC(=O)C2CCCN(c3cnccn3)C2)cc1 (centres undefined) | 2.59 µM [rising, partial curve] | 2.39% | 1.64 µM [rising, partial curve, poor fit]

3 structures out of the list, arranged by length of the SMILES, descending:
SMILES | AC50 [1] | cell number change | AC50 [2]
COc1cc2c(cc1OC)CN(C(=O)CNC(=O)c1ccc(OC(F)F)cc1)CC2 | 13 µM [rising, partial curve, poor fit] | 25.2% | 0.461 µM [rising, full curve, poor fit]
CCOC(=O)c1ccc(NC(=O)C2CCCN(c3cnccn3)C2)cc1 (centres undefined) | 2.59 µM [rising, partial curve] | 2.39% | 1.64 µM [rising, partial curve, poor fit]
Cc1ccc(Cl)c(OCCN2CCCC(C)C2)c1 (centres undefined) | 6.51 µM [falling, single point] | 12.7% | –

The results go on.

SMILES | AC50 [1] | cell number change | AC50 [2]
COc1ccc(N2CCN(CNC(=O)c3ccccc3)CC2)cc1 | 29.1 µM [rising, single point] | 9.26% | –
CCCNC(=O)c1ccc(COc2ccc(C(C)(C)C)cc2)o1 | 29.1 µM [falling, single point] | -27.7% | –
Cc1ccccc1CSCC(=O)Nc1c(C)n(C)n(-c2ccccc2)c1=O | – | 40% | 32.6 µM [rising, single point]
COc1ccc(NC(=O)CN2C(=O)CSc3ncccc32)cc1 | – | 13.5% | –
O=C(O)c1ccc(Cl)c(S(=O)(=O)Nc2ccccc2C(=O)Nc2ccc(Cl)cc2)c1 | – | 17.1% | –
CC1CCN(C(=O)CN2C(=O)c3cccc4cccc(c34)C2=O)CC1 | – | 5.7% | –
O=C(c1ccccc1)c1ccc(C(=O)N2CCN(c3ccccc3Cl)CC2)cc1 | 0.206 µM [falling, full curve] | -19% | 0.103 µM [falling, full curve, poor fit]
CCOC(=O)C1=C(C)NC(SCC(N)=O)=C(C#N)C1c1ccccc1 (centres undefined) | – | 31.6% | 0.0651 µM [rising, full curve, poor fit]
C[C@]12C[C@H](O)[C@@H]3c4ccc(O)cc4CCC3[C@@H]1CCC2=O (some centres undefined) | 0.13 µM [rising, full curve, poor fit] | 14.7% | 0.184 µM [rising, full curve, poor fit]
Cc1ccc(-n2c3c(cc(C(=O)NCC(=O)c4ccccc4)c2=O)C(=O)CCC3)cc1 | 8.2 µM [falling, partial curve] | -33.3% | 14.6 µM [falling, single point]
Cc1cc(C)cc(C(=O)N2CCN=C2SCc2ccc([N+](=O)[O-])cc2)c1 | 14.6 µM [falling, partial curve] | – | –
Oc1ccc(C2=Nn3c(nnc3-c3ccco3)SC2)cc1O | 3.66 µM [falling, full curve] | -74.5% | 3.26 µM [falling, full curve]
CC12CCCCC1c1ccccc1C(=NCC(=O)O)N2 (centres undefined) | 23.1 µM [falling, single point] | -8.3% | –
Cc1ccc(OCC(O)CN2CCN(c3ccccn3)CC2)c(C)c1 (centres undefined) | 29.1 µM [rising, single point] | 18.2% | –
N#CC1(c2ccccc2)CCCN1C(=O)c1ccc(Br)o1 (centres undefined) | – | -19.6% | –
O=C(Nc1ccc(Cl)cc1)Nc1cccc2nsnc12 | 29.1 µM [falling, single point] | – | –
COc1ncccc1-c1nnn(-c2ccc(Cl)c(Cl)c2)n1 | 9.2 µM [rising, partial curve, poor fit] | 11.3% | –
C=CCN1C(=S)CC(c2ccccc2)=Nc2ccccc21 | – | -9.47% | –
CCCc1nc2ccc(NC(=O)NCCC(=O)OCC)cc2c(=O)n1Cc1ccc(Cl)cc1 | 32.6 µM [falling, single point] | -24% | –
CCOC(=O)N1CCN(C(=O)CN(c2ccc(C)c(C)c2)S(=O)(=O)c2ccccc2)CC1 | – | -1.16% | –
CCC(C)NS(=O)(=O)c1ccc(S(=O)(=O)N(CC(=O)Nc2ccccc2)CC2CCCO2)cc1 (centres undefined) | 29.1 µM [rising, single point] | 0.54% | 6.51 µM [rising, single point]
